{"source": "the supplement of paper PMC8728848", "binders": {"B1": {"name": "PX9961Q-bfa-504-27-504 (Bacteroides fragilis) (protein)", "chain": "NDWLDRKPADGIPSEDAITNYNDALTARTGMYDGIQGNSNATSYYGARMFYYGDVRADDMQARTQGMRSSSCYEMLYTVDDAPNMWNIPYNVIRRANRLIEAINEKKVTDATEAQIGKIYSEALVVRALVHFDLVRIYGMPYTADNGASLGVPVIVKPLERNDLPSRNTVAEVYTQVITDLTDAINSGYLAKDQTPGYINEWAAKALLTRVYLTKGDNENALKVAEDIITNSPYKLWTNEEYVNAWYKSNGAHTNEMIFEVVNASNDDWTDRNGIAYLLNENGYADAIVTKSFMNMLSQDPKDVRIGMVLPAQYDKDLQEEYGDAKIFINKFPADKDDVGEMRLNNLPLLRLSEVYLSAAEAAAKLGGHQDKAAKYLNEIVQRANPEAKAISEADATVERIILERRKEMIGEGQRYFDALRNNETIVRYKDEGDKGYHYSLIKESQSFDRTYFRAILPIPVDETNVNPNLRAQQNPGY"}}, "test_in_all_cases": "glycan array binding signal (z-score within array); higher = stronger binding", "conditions_in_all_cases": "glycan notation: IUPAC condensed, linker removed", "key": {"[1]": {"target": "Fuc(a1-2)Gal(b1-4)GlcNAc(b1-3)Gal(b1-4)GlcNAc(b1-3)Gal(b1-4)GlcNAc", "outline": "(§1)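 The binding signal is a Z-score computed within each array. Data were drawn from 3228 arrays in the Consortium for Functional Glycomics database, restricted to those with a known protein sequence. Scores were averaged over arrays of the same protein sequence at different concentrations or buffers, and over linkers, and negative values can be taken as non-binding.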"}, "[2]": {"target": "Fuc(a1-2)Gal(b1-4)GlcNAc(b1-3)GalNAc", "outline": "as §1"}, "[3]": {"target": "Fuc(a1-2)Gal(b1-4)GlcNAc(b1-3)[Fuc(a1-2)Gal(b1-4)GlcNAc(b1-6)]GalNAc", "outline": "as §1"}, "[4]": {"target": "Fuc(a1-2)Gal(b1-4)GlcNAc(b1-3)[Fuc(a1-3)[Gal(b1-4)]GlcNAc(b1-6)]Gal(b1-4)Glc", "outline": "as §1"}, "[5]": {"target": "Fuc(a1-2)Gal(b1-4)GlcNAc(b1-6)GalNAc", "outline": "as §1"}, "[6]": {"target": "Fuc(a1-2)Gal(b1-4)GlcNAc6S", "outline": "as §1"}, "[7]": {"target": "Fuc(a1-2)Gal(b1-4)[Fuc(a1-3)]GlcNAc", "outline": "as §1"}, "[8]": {"target": "Fuc(a1-2)Gal(b1-4)[Fuc(a1-3)]GlcNAc(b1-2)Man(a1-3)[Fuc(a1-2)Gal(b1-4)[Fuc(a1-3)]GlcNAc(b1-2)Man(a1-6)]Man(b1-4)GlcNAc(b1-4)[Fuc(a1-6)]GlcNAc", "outline": "as §1"}, "[9]": {"target": "Fuc(a1-2)Gal(b1-4)[Fuc(a1-3)]GlcNAc(b1-2)[Fuc(a1-2)Gal(b1-4)[Fuc(a1-3)]GlcNAc(b1-4)]Man(a1-3)[Fuc(a1-2)Gal(b1-4)[Fuc(a1-3)]GlcNAc(b1-2)Man(a1-6)]Man(b1-4)GlcNAc(b1-4)GlcNAc", "outline": "as §1"}, "[10]": {"target": "Fuc(a1-2)Gal(b1-4)[Fuc(a1-3)]GlcNAc(b1-3)Gal(b1-4)[Fuc(a1-3)]GlcNAc", "outline": "as §1"}, "[11]": {"target": "Fuc(a1-2)Gal(b1-4)[Fuc(a1-3)]GlcNAc(b1-3)Gal(b1-4)[Fuc(a1-3)]GlcNAc(b1-3)Gal(b1-4)[Fuc(a1-3)]GlcNAc", "outline": "as §1"}, "[12]": {"target": "Fuc(a1-2)Gal(b1-4)[Fuc(a1-3)]GlcNAc(b1-3)GalNAc", "outline": "as §1"}, "[13]": {"target": "Fuc(a1-2)Gal(b1-4)[Fuc(a1-3)]GlcNAc(b1-3)[Neu5Ac(a2-6)Gal(b1-4)GlcNAc(b1-6)]Gal(b1-4)Glc", "outline": "as §1"}, "[14]": {"target": "Fuc(a1-2)Gal3S(b1-4)GlcNAc", "outline": "as §1"}, "[15]": {"target": "Fuc(a1-2)Gal6S(b1-3)GlcNAc", "outline": "as §1"}, "[16]": {"target": "Fuc(a1-2)Gal6S(b1-3)GlcNAc6S", "outline": "as §1"}, "Fuc(a1-2)Gal6S(b1-4)Glc": {"target": "Fuc(a1-2)Gal6S(b1-4)Glc", "outline": "as §1"}, "[17]": {"target": "Fuc(a1-2)Gal6S(b1-4)Glc6S", "outline": "as §1"}, "Fuc(a1-2)[Gal(a1-3)]Gal": {"target": "Fuc(a1-2)[Gal(a1-3)]Gal", "outline": "as §1"}, "[18]": {"target": "Fuc(a1-2)[Gal(a1-3)]Gal(b1-3)GalNAc", "outline": "as §1"}, "[19]": {"target": "Fuc(a1-2)[Gal(a1-3)]Gal(b1-3)GalNAc(b1-3)Gal(a1-4)Gal(b1-4)Glc", "outline": "as §1"}, "[20]": {"target": "Fuc(a1-2)[Gal(a1-3)]Gal(b1-3)GlcNAc", "outline": "as §1"}, "[21]": {"target": "Fuc(a1-2)[Gal(a1-3)]Gal(b1-3)GlcNAc(b1-2)Man(a1-3)[Fuc(a1-2)[Gal(a1-3)]Gal(b1-3)GlcNAc(b1-2)Man(a1-6)]Man(b1-4)GlcNAc(b1-4)GlcNAc", "outline": "as §1"}, "[22]": {"target": "Fuc(a1-2)[Gal(a1-3)]Gal(b1-3)GlcNAc(b1-2)Man(a1-3)[Fuc(a1-2)[Gal(a1-3)]Gal(b1-3)GlcNAc(b1-2)Man(a1-6)]Man(b1-4)GlcNAc(b1-4)[Fuc(a1-6)]GlcNAc", "outline": "as §1"}, "[23]": {"target": "Fuc(a1-2)[Gal(a1-3)]Gal(b1-3)GlcNAc(b1-3)GalNAc", "outline": "as §1"}, "[24]": {"target": "Fuc(a1-2)[Gal(a1-3)]Gal(b1-3)GlcNAc(b1-6)GalNAc", "outline": "as §1"}, "[25]": {"target": "Fuc(a1-2)[Gal(a1-3)]Gal(b1-4)Glc", "outline": "as §1"}, "[26]": {"target": "Fuc(a1-2)[Gal(a1-3)]Gal(b1-4)GlcNAc", "outline": "as §1"}, "[27]": {"target": "Fuc(a1-2)[Gal(a1-3)]Gal(b1-4)GlcNAc(b1-2)Man", "outline": "as §1"}, "[28]": {"target": "Fuc(a1-2)[Gal(a1-3)]Gal(b1-4)GlcNAc(b1-2)Man(a1-3)[Fuc(a1-2)[Gal(a1-3)]Gal(b1-4)GlcNAc(b1-2)Man(a1-6)]Man(b1-4)GlcNAc(b1-4)GlcNAc", "outline": "as §1"}, "[29]": {"target": "Fuc(a1-2)[Gal(a1-3)]Gal(b1-4)GlcNAc(b1-2)Man(a1-3)[Fuc(a1-2)[Gal(a1-3)]Gal(b1-4)GlcNAc(b1-2)Man(a1-6)]Man(b1-4)GlcNAc(b1-4)[Fuc(a1-6)]GlcNAc", "outline": "as §1"}, "[30]": {"target": "Fuc(a1-2)[Gal(a1-3)]Gal(b1-4)GlcNAc(b1-3)GalNAc", "outline": "as §1"}, "[31]": {"target": "Fuc(a1-2)[Gal(a1-3)]Gal(b1-4)GlcNAc(b1-3)[Fuc(a1-2)[Gal(a1-3)]Gal(b1-4)GlcNAc(b1-6)]GalNAc", "outline": "as §1"}, "[32]": {"target": "Fuc(a1-2)[Gal(a1-3)]Gal(b1-4)GlcNAc(b1-6)GalNAc", "outline": "as §1"}, "[33]": {"target": "Fuc(a1-2)[Gal(a1-3)]Gal(b1-4)[Fuc(a1-3)]Glc", "outline": "as §1"}, "[34]": {"target": "Fuc(a1-2)[Gal(a1-3)]Gal(b1-4)[Fuc(a1-3)]GlcNAc", "outline": "as §1"}, "[35]": {"target": "Fuc(a1-2)[Gal(a1-3)]Gal(b1-4)[Fuc(a1-3)]GlcNAc(b1-3)GalNAc", "outline": "as §1"}}, "note": "The other results are listed elsewhere or left out."}
{"binder": "B1", "values": [{"measurement": "glycan array binding signal (z-score)", "setting": "[1]", "result": 0.169}, {"measurement": "glycan array binding signal (z-score)", "setting": "[2]", "result": -0.606}, {"measurement": "glycan array binding signal (z-score)", "setting": "[3]", "result": 0.788}, {"measurement": "glycan array binding signal (z-score)", "setting": "[4]", "result": 0.172}, {"measurement": "glycan array binding signal (z-score)", "setting": "[5]", "result": 0.145}, {"measurement": "glycan array binding signal (z-score)", "setting": "[6]", "result": 0.092}, {"measurement": "glycan array binding signal (z-score)", "setting": "[7]", "result": -0.307}, {"measurement": "glycan array binding signal (z-score)", "setting": "[8]", "result": -0.325}, {"measurement": "glycan array binding signal (z-score)", "setting": "[9]", "result": 0.302}, {"measurement": "glycan array binding signal (z-score)", "setting": "[10]", "result": -0.681}, {"measurement": "glycan array binding signal (z-score)", "setting": "[11]", "result": 0.611}, {"measurement": "glycan array binding signal (z-score)", "setting": "[12]", "result": 0.086}, {"measurement": "glycan array binding signal (z-score)", "setting": "[13]", "result": 0.719}, {"measurement": "glycan array binding signal (z-score)", "setting": "[14]", "result": -0.05}, {"measurement": "glycan array binding signal (z-score)", "setting": "[15]", "result": 0.457}, {"measurement": "glycan array binding signal (z-score)", "setting": "[16]", "result": -0.154}, {"measurement": "glycan array binding signal (z-score)", "setting": "Fuc(a1-2)Gal6S(b1-4)Glc", "result": -0.727}, {"measurement": "glycan array binding signal (z-score)", "setting": "[17]", "result": -0.797}, {"measurement": "glycan array binding signal (z-score)", "setting": "Fuc(a1-2)[Gal(a1-3)]Gal", "result": -0.086}, {"measurement": "glycan array binding signal (z-score)", "setting": "[18]", "result": 0.904}, {"measurement": "glycan array binding signal (z-score)", "setting": "[19]", "result": 0.514}, {"measurement": "glycan array binding signal (z-score)", "setting": "[20]", "result": -0.602}, {"measurement": "glycan array binding signal (z-score)", "setting": "[21]", "result": 0.366}, {"measurement": "glycan array binding signal (z-score)", "setting": "[22]", "result": -0.214}, {"measurement": "glycan array binding signal (z-score)", "setting": "[23]", "result": 0.054}, {"measurement": "glycan array binding signal (z-score)", "setting": "[24]", "result": -0.779}, {"measurement": "glycan array binding signal (z-score)", "setting": "[25]", "result": 0.106}, {"measurement": "glycan array binding signal (z-score)", "setting": "[26]", "result": -0.199}, {"measurement": "glycan array binding signal (z-score)", "setting": "[27]", "result": 0.057}, {"measurement": "glycan array binding signal (z-score)", "setting": "[28]", "result": 0.64}, {"measurement": "glycan array binding signal (z-score)", "setting": "[29]", "result": 0.064}, {"measurement": "glycan array binding signal (z-score)", "setting": "[30]", "result": -0.166}, {"measurement": "glycan array binding signal (z-score)", "setting": "[31]", "result": 1.3}, {"measurement": "glycan array binding signal (z-score)", "setting": "[32]", "result": -0.541}, {"measurement": "glycan array binding signal (z-score)", "setting": "[33]", "result": -0.854}, {"measurement": "glycan array binding signal (z-score)", "setting": "[34]", "result": -0.22}, {"measurement": "glycan array binding signal (z-score)", "setting": "[35]", "result": -0.548}]}
